Results deposited as PubChem BioAssay AID504808 (Drosophila RNAi Screening Center, 2011)
The screen tested about 21,000 reagents; shown is a random part of those with a known target gene and a result. In the full data, 18 (0.084%) are marked active. 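Raw counts without plate normalisation, one of two replicates; the ratio scores behind the calls were not deposited.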 Reagents against one gene are numbered here. A plus sign joins genes that one reagent is predicted to hit. Reagent sequences are not shown. Not stated in the record: the amount of reagent, the time to read-out.

Screen: 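Chromatin factors that keep E2F targets switched off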 (primary screen)
System: Drosophila S2 cells
Knock-down reagent: long dsRNA against Drosophila genes
Measurement: 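Firefly luciferase driven by E2F sites, normalised to Renilla luciferase on the same minimal promoter, measured by plate reader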
Reading the numbers: E2F firefly: higher = more E2F reporter activity; Renilla normaliser: higher = more normaliser reporter signal
Rule for the call: 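a knock-down counted as active when the firefly/Renilla E2F signal rose above 50%, a threshold chosen arbitrarily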

Target gene | reagent | E2F firefly, rep 1 | Renilla normaliser, rep 1 | activity call
CG10171 | 1 | 88239 | 4003 | inactive
PIG-G (Phosphatidylinositol glycan anchor biosynthesis class G) | 1 | 78314 | 3318 | inactive
CG7376 | 1 | 73967 | 3413 | inactive
Hsp70Bb + Hsp70Ba + Hsp70Bc + 1 more | 1 | 91006 | 6770 | inactive
Hsp70Bb + Hsp70Ba + Hsp70Bc + 1 more | 2 | 85996 | 6565 | inactive
CG11279 | 1 | 1.27e5 | 7161 | inactive
gcl (germ cell-less) | 1 | 2993 | 184 | inactive
CG31446 | 1 | 80153 | 2880 | inactive
CG32428 | 1 | 69230 | 3223 | inactive
CG32428 | 2 | 1.40e5 | 6589 | inactive
SP1173 | 1 | 73108 | 3498 | inactive
Noc2 (Nucleolar complex protein 2) | 1 | 74483 | 3927 | inactive
stg (string) | 1 | 721 | 720 | inactive
CG3534 | 1 | 1.35e5 | 6573 | inactive
Tailor | 1 | 1.13e5 | 6422 | inactive
CG42240 | 1 | 7274 | 652 | inactive
Ir7f (Ionotropic receptor 7f) | 1 | 51566 | 3456 | inactive
mRpL23 (mitochondrial ribosomal protein L23) | 1 | 97028 | 4843 | inactive
CG32813 | 1 | 72729 | 5009 | inactive
CG15514 | 1 | 1829 | 888 | inactive
CG13482 | 1 | 77954 | 3903 | inactive
CG7872 | 1 | 7720 | 744 | inactive
CG6621 | 1 | 69744 | 3687 | inactive
5-HT2B (5-hydroxytryptamine (serotonin) receptor 2B) | 1 | 1.49e5 | 8801 | inactive
5-HT2B (5-hydroxytryptamine (serotonin) receptor 2B) | 2 | 1.43e5 | 7614 | inactive
CG34452 | 1 | 1.35e5 | 4260 | inactive
CG34228 | 1 | 1.30e5 | 4598 | inactive

Reformatted: 5 of the entries above
| Target gene | reagent | E2F firefly, rep 1 | Renilla normaliser, rep 1 | activity call |
| --- | --- | --- | --- | --- |
| Tailor | 1 | 1.13e5 | 6422 | inactive |
| CG42240 | 1 | 7274 | 652 | inactive |
| Ir7f (Ionotropic receptor 7f) | 1 | 51566 | 3456 | inactive |
| mRpL23 (mitochondrial ribosomal protein L23) | 1 | 97028 | 4843 | inactive |
| CG32813 | 1 | 72729 | 5009 | inactive |

More results follow:
Target gene | reagent | E2F firefly, rep 1 | Renilla normaliser, rep 1 | activity call
CG32645 | 1 | 7161 | 382 | inactive
CG32645 | 2 | 1.44e5 | 6681 | inactive
nAChRalpha5 (nicotinic Acetylcholine Receptor alpha5) | 1 | 1.35e5 | 5468 | inactive
nAChRalpha5 (nicotinic Acetylcholine Receptor alpha5) | 2 | 1.01e5 | 4360 | inactive
nAChRalpha5 (nicotinic Acetylcholine Receptor alpha5) | 3 | 1.07e5 | 4259 | inactive
CG15564 | 1 | 1.14e5 | 5549 | inactive
Ilp6 (Insulin-like peptide 6) | 1 | 1.14e5 | 5456 | inactive
CG14247 | 1 | 1.00e5 | 5741 | inactive
Pfk (Phosphofructokinase) | 1 | 2545 | 216 | inactive
CG12744 | 1 | 2867 | 223 | inactive
IFT43 (Intraflagellar transport 43) | 1 | 83682 | 3886 | inactive
CG15543 | 1 | 1.32e5 | 6533 | inactive
CG14777 | 1 | 1.26e5 | 5266 | inactive
ClC-a (Chloride channel-a) | 1 | 1.34e5 | 5632 | inactive
ClC-a (Chloride channel-a) | 2 | 1.29e5 | 6045 | inactive
ClC-a (Chloride channel-a) | 3 | 65207 | 3392 | inactive
ix (intersex) | 1 | 82606 | 4581 | inactive
CG5681 | 1 | 1.01e5 | 4715 | inactive
GlcAT-P (Glucuronyltransferase P) | 1 | 77966 | 3566 | inactive
GlcAT-P (Glucuronyltransferase P) | 2 | 82574 | 4631 | inactive
CG8858 | 1 | 98779 | 4274 | inactive
boss (bride of sevenless) | 1 | 1.14e5 | 5687 | inactive
MFS9 (Major Facilitator Superfamily Transporter 9) | 1 | 60092 | 3810 | inactive
CycH (Cyclin H) | 1 | 1.32e5 | 7182 | inactive
CG12115 | 1 | 65345 | 5837 | inactive
cass (cassowary) | 1 | 85996 | 3653 | inactive
metro (menage a trois) | 1 | 2994 | 206 | inactive
metro (menage a trois) | 2 | 94227 | 3824 | inactive
CG14937 | 1 | 1.38e5 | 4010 | inactive
CG12480 | 1 | 1.49e5 | 5894 | inactive
